# Measurements reported in PubChem BioAssay AID1259254 (NCATS, 2017)
# Screen: 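Finding genes that stop cells copying their DNA twice in one cycle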 (primary screen)
# System: human HCT116 colorectal cancer cells
# Reagent: single siRNA against human genes
# Time to read-out: 3 days
# Measurement: 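Imaged Hoechst DNA stain sorts each cell into a cycle phase by DNA amount; per plate, G2 fraction set to 0% for non-targeting and 100% for GMNN siRNA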
# Scale: G2 robust z-score and G2 cells, % of GMNN control: higher = more G2 cells, more excess DNA replication; raw share of cells in G2: higher = larger share of cells with G2 DNA content
# Rule for the call: 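Active siRNAs have a G2 robust z of 5 or more median absolute deviations over the median, which in these data means about 38% or higher of GMNN control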
# The deposit covers about 59,000 reagents; below is a random part of them. In the full data, about 1,550 (2.6%) are marked active. 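G2 share is only a proxy for re-replication; each gene was hit by three separate siRNAs, and active genes were retested.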 Raw values vary from plate to plate and are shown uncorrected. Unmarked entries are inactive. Not given: the amount of reagent.
gene,PubChem SID,G2 robust z-score,"G2 cells, % of GMNN control",raw share of cells in G2 (%)
DHX16 (DEAH-box helicase 16),SID160720062,-0.249,1.22,5.09
DHX16 (DEAH-box helicase 16),SID160720064,0.0469,3.3,5.89
DHX16 (DEAH-box helicase 16),SID160720065,-0.525,-0.723,5.01
GRAP (GRB2 related adaptor protein),SID160724289,0.229,4.58,6.78
GRAP (GRB2 related adaptor protein),SID160724290,-1.04,-4.33,2.35
GRAP (GRB2 related adaptor protein),SID160732291,-0.501,-0.556,2.97
MEGF11 (multiple EGF like domains 11),SID160752307,-0.416,0.0416,4.12
MEGF11 (multiple EGF like domains 11),SID160752308,-0.183,1.68,3.96
MEGF11 (multiple EGF like domains 11),SID160752309,-0.11,2.19,3.07
PMP2 (peripheral myelin protein 2),SID160714537,-0.683,-1.84,3.53
PMP2 (peripheral myelin protein 2),SID160714538,-0.194,1.61,5.53
PMP2 (peripheral myelin protein 2),SID160714539,0.282,4.95,6.57
CLVS2 (clavesin 2),SID160757373,-0.57,-1.04,3.78
CLVS2 (clavesin 2),SID160757374,0.52,6.63,5.2
CLVS2 (clavesin 2),SID160757375,-0.384,0.266,2.68
KCNH1 (potassium voltage-gated channel subfamily H member 1),SID160776159,3.07,24.6,14.2
KCNH1 (potassium voltage-gated channel subfamily H member 1),SID160776161,-0.611,-1.33,4.33
KCNH1 (potassium voltage-gated channel subfamily H member 1),SID160776162,0.54,6.77,7.02
ADAMTS3 (ADAM metallopeptidase with thrombospondin type 1 motif 3),SID160722371,0.718,8.02,8.35
ADAMTS3 (ADAM metallopeptidase with thrombospondin type 1 motif 3),SID160722372,-0.139,1.99,5.61
ADAMTS3 (ADAM metallopeptidase with thrombospondin type 1 motif 3),SID160722373,-0.701,-1.96,3.18
S100A2 (S100 calcium binding protein A2),SID160716280,-0.0292,2.76,4.56
S100A2 (S100 calcium binding protein A2),SID160716281,0.618,7.32,5.76
S100A2 (S100 calcium binding protein A2),SID160731679,4.7,36,21.7
AKR1E2 (aldo-keto reductase family 1 member E2),SID160751218,-0.0215,2.82,5.83
AKR1E2 (aldo-keto reductase family 1 member E2),SID160751219,-0.0948,2.3,6.39
AKR1E2 (aldo-keto reductase family 1 member E2),SID160751221,1.12,10.9,8.13
OR5V1 (olfactory receptor family 5 subfamily V member 1),SID160750952,-1.07,-4.58,2.58
OR5V1 (olfactory receptor family 5 subfamily V member 1),SID160750953,-0.705,-1.99,2.87
OR5V1 (olfactory receptor family 5 subfamily V member 1),SID160750954,-0.481,-0.417,2.28
SLC17A1,SID160716957,2.9,23.4,11.7
SLC17A1,SID160716959,-0.0113,2.89,5.54
SLC17A1,SID160716960,-1.26,-5.89,3.7
ETHE1 (ETHE1 persulfide dioxygenase),SID160730855,-0.362,0.424,6.54
ETHE1 (ETHE1 persulfide dioxygenase),SID160736353,-1,-4.08,2.79
ETHE1 (ETHE1 persulfide dioxygenase),SID160736354,-0.477,-0.388,3.73
ABHD14A (abhydrolase domain containing 14A),SID160737140,2.16,18.1,11.2
ABHD14A (abhydrolase domain containing 14A),SID160737141,-0.0417,2.67,5.1
ABHD14A (abhydrolase domain containing 14A),SID160737142,-0.58,-1.11,2.91
MIMS1 (mitochondrial inner membrane structural 1),SID160756324,-0.438,-0.114,4.05
MIMS1 (mitochondrial inner membrane structural 1),SID160756325,4.95,37.8,14.6
MIMS1 (mitochondrial inner membrane structural 1),SID160756327,-0.303,0.838,2.06
USP24 (ubiquitin specific peptidase 24),SID160736097,-0.385,0.258,6.47
USP24 (ubiquitin specific peptidase 24),SID160736098,2.23,18.7,10.4
USP24 (ubiquitin specific peptidase 24),SID160736099,0.536,6.74,6.17
MCF2 (MCF.2 cell line derived transforming sequence),SID160777042,-0.0811,2.4,3.99
MCF2 (MCF.2 cell line derived transforming sequence),SID160777043,-1.29,-6.12,3.04
MCF2 (MCF.2 cell line derived transforming sequence),SID160777044,-0.395,0.19,5.43
RNF216 (ring finger protein 216),SID160741759,4.14,32.1,16.1
RNF216 (ring finger protein 216),SID160741760,-0.753,-2.33,2.91
RNF216 (ring finger protein 216),SID160741761,1.01,10.1,10.5
OCLN (occludin),SID160778340,-1.14,-5.08,1.44
OCLN (occludin),SID160778341,-0.621,-1.41,4.19
OCLN (occludin),SID160778342,0.625,7.36,5.78
PRKACG (protein kinase cAMP-activated catalytic subunit gamma),SID160714905,0.397,5.76,7.51
PRKACG (protein kinase cAMP-activated catalytic subunit gamma),SID160714906,-0.7,-1.96,4.75
PRKACG (protein kinase cAMP-activated catalytic subunit gamma),SID160731521,4.73,36.2,16.8
"MXI1 (MAX interactor 1, dimerization protein)",SID160731257,-0.556,-0.946,4.4
"MXI1 (MAX interactor 1, dimerization protein)",SID160777603,-0.495,-0.516,3.26
"MXI1 (MAX interactor 1, dimerization protein)",SID160777604,1.2,11.4,7.25
SLC5A11,SID160755230,1.76,15.4,12.8
SLC5A11,SID160755231,0.744,8.2,8.48
SLC5A11,SID160755232,0.507,6.53,6.95
COL4A5 (collagen type IV alpha 5 chain),SID160745927,0.783,8.48,9.28
COL4A5 (collagen type IV alpha 5 chain),SID160745939,0.807,8.65,7.25
COL4A5 (collagen type IV alpha 5 chain),SID160745949,-0.374,0.334,3.65
SPDEF (SAM pointed domain containing ETS transcription factor),SID160724332,-0.144,1.95,4.63
SPDEF (SAM pointed domain containing ETS transcription factor),SID160737011,0.799,8.59,10.1
SPDEF (SAM pointed domain containing ETS transcription factor),SID160737012,-0.901,-3.37,3.07

Reformatted: 6 of the entries above
gene | PubChem SID | G2 robust z-score | G2 cells, % of GMNN control | raw share of cells in G2 (%)
PRKACG (protein kinase cAMP-activated catalytic subunit gamma) | SID160714905 | 0.397 | 5.76 | 7.51
PRKACG (protein kinase cAMP-activated catalytic subunit gamma) | SID160714906 | -0.7 | -1.96 | 4.75
PRKACG (protein kinase cAMP-activated catalytic subunit gamma) | SID160731521 | 4.73 | 36.2 | 16.8
MXI1 (MAX interactor 1, dimerization protein) | SID160731257 | -0.556 | -0.946 | 4.4
MXI1 (MAX interactor 1, dimerization protein) | SID160777603 | -0.495 | -0.516 | 3.26
MXI1 (MAX interactor 1, dimerization protein) | SID160777604 | 1.2 | 11.4 | 7.25
